No constants are given. Whether binding was seen depends on the method and setting. Binding seen in cells or lysates may run through a third protein. Binding can be weak; no strength is given.
Biological target: FLAG-tagged mouse ULK1 (mULK1-3FLAG) (mouse) (UniProt Q6PB82)
Experiment: co-IP; anti-FLAG antibody on Protein G Dynabeads, 4 °C 12 hours, M-PER lysates of HEK-293T cells stably expressing the FLAG-tagged bait; cells asynchronous or synchronized by single-thymidine with or without nocodazole (some treated with RO-3306); western blot

Amino acid sequences for entries named in this document (tags omitted).
UniProt P14635: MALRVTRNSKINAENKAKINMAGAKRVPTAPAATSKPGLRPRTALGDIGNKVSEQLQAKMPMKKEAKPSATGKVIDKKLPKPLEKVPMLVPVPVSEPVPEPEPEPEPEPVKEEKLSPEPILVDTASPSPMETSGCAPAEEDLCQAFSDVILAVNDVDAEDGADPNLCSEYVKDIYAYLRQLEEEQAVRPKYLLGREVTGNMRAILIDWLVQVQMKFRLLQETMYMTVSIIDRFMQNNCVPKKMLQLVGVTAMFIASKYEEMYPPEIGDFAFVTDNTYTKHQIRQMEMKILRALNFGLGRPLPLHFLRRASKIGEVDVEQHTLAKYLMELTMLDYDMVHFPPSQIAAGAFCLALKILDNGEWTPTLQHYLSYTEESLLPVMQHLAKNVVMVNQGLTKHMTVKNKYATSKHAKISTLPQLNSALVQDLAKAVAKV

cyclin B1, endogenous (from UniProt P14635 1-433)
binding: binds
